In patent US20210207128:

Target: T1, Nattokinase (NK) (UniProt P35835)
T1 sequence (looked up, limits assumed): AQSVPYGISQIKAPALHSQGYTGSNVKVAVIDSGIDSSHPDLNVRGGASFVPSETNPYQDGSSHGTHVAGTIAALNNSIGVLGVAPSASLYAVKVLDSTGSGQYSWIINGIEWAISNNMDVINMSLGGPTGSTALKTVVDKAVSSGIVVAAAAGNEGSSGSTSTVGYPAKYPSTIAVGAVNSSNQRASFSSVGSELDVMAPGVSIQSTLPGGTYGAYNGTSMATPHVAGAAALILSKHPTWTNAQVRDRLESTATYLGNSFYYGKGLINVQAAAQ
Assay: SPR
Settings: solution competition SPR (KS), 4 C, purified native protein, protein details: purchased, further purified by chromatography, label: 5' 6-FAM (FITC) in CE assay, single-stranded DNA

Sequence	Kd (R2 0.99)	other results
AAAGGCGCTGTGCACAGTGTCCCCGCGGG [NK-APT-13]		Kd (R2 0.97): 35 nM
AAATGAGGACCTCATTATCTTAGGAAGGT [NK-APT-03]	87 nM	
CCGAGGGGAATTCACCACGAATCGCCTCT [NK-APT-14]		Kd (R2 0.97): 28 nM
CTCGTGTAAAACGATGGTAGCTGTACTTG [NK-APT-12]	8.7 nM	
GACTACCGCGGAGATCTCCAATCGGGATG [NK-APT-02]	16 nM	
GCCTTAAAAACGTCCTTAGTGACGTTTAC [NK-APT-04]	15 nM	
TCGATAGTTGTACTGGAGTGAATCACTGA [NK-APT-15]		Kd (R2 0.98): 21 nM

The exact form of at least one protein or probe is not confirmed. Tags and fusion partners may be left off the protein sequences shown.
